No constants are given. Whether binding was seen depends on the method and setting. Binding can be weak; no strength is given.
B1: E1/M3 (Fab, V domains shown)
VH: EVQLLESGGGLVKPGGSLRLSCAASGFTFSSYSMHWVRQAPGKGLEWVSSISNSNTYIYYADAVKGRFTISRDNAKNSLYLQMNSLRAEDTAVYYCARDSRYSNFLRWVRSDGMDVWGQGTTVIVSS
VL: AELTQPPSASGTPGQRVTISCSGSSSNIGSNYVYWYQQLPGTAPKLLIYRNNQRPSGVPDRFSGSKSGTSASLAISGLRSEAEADYYCAAWDDSLSAVVFGGGTKLTVLL
B2: SH08 (Fab, V domains shown)
VH: EVQLLESGGGVVQPGRSLRLSCAVSGFTLTNYGMHWVRQAPGKGLEWVAHVWYDGSKTEYADSVKGRFAVSRDKSKNTLFLQMNSLTAEDTAIYYCARERREKVYILFYSWLDRWGQGTLVTVSS
VL: AELTQSPSSLAASVGDRVTITCRANQTIRTSLNWYQQRPGKAPNLLIYGASRLHSGVPSRFSGGISGADFTLTISSLQPEDFATYYCQQTYGYSRTFGQGTKVDIKR
B3: SH12 (Fab, V domains shown)
VH: EVQLLESGGGVVQPGRSLRLSCAASGFTFSTYGMHWVRQAPGKGLEWVAVIWFDGSNKEYADSVKGRFTVSRDNSKNTLYLQMNSLRAEDTAVYYCAREEVVRGVILWSRKFDYWGQGTLVTVSS
VL: AELTQSPFSLSASVGDRVTITCRASHNIYRSLNWFQHKPGEAPKLLVYAASSLQRGVPTRFSGSGSGTDFTLTISSLQPEDSATYFCQQSVTFPYTFGQGTKLEIRR
B4: SH17 (Fab, V domains shown)
VH: EVQLLESGGGLVQPGGSLRLSCGASGIPFVSSWMAWVRQAPGKGLEWVANIKQDGSKKNYVDSVEGRFTISRDNAKNSLYLQMDSLRAEDTRIYYCARDSLTCFDYWGQGALVTVSS
VL: AELQDPVVSVALGQTVRITCQGDGLRSYYASWYQQKPGQAPKLVMYGRNNRPSGIPGRFSGSSSGQTAALTITGTQAEDEADYYCQSRATSGNPVVFGGGTKLTVL
B5: SH18 (Fab, V domains shown)
VH: EVQLLESGGGVVQPGRSLRLSCAASGFTFRSYAMHWVRQAPGKGLEWVAATAYDGKNKYYADSVKGRFTISRDNSMNTLFLQMNSLRAEDTAVFYCARGGFYYDSSGYYGLRHYFDSWGQGTLVTVSS
VL: AELTQSPSSLSASVGDRVTITCRASQSISIALNWYQQRPGKAPKLLMYATSTLQSGVPSRFSGSGSGTDFTLTISSLQPEDFATYYCQQYYNKPTFGPGTKVDIKR
B6: SH20 (Fab, V domains shown)
VH: VQLLEESGGGVVQPGRSLRLSCAASGFTFRSYAMHWVRQAPGKGLEWVAVISYDGSTIYYADSVKGRFTISRANSKNTLFLQMNSLRTEDTAVYYCTRGGFYYDSSGYYGLRHYFDYWGQGTLVTVSS
VL: AELTQSPFSLSASVGDRVTITCRASQSISRSLNWYQHKPGEAPKLLIYAASSLQRGVPPRFSGSGSGTDFTLTISSLQPEDFATYFCQQSVRIPYSFGQGTKLEIKR
B7: SH21 (Fab, V domains shown)
VH: EVQLLESGGGVVQPGRSLRLSCAASGFTFSTYGMHWVRQAPGKGLEWVAVIWFDGSNKEYADSVKGRFTVSRDNSKNTLYLQMNSLRAEDTAVYYCAREEVVRGVILWSRKFDYWGQGTLVTVSS
VL: AELTQSPSFLSASVGDRVTITCRASQGIRSYLAWYQQKPGKAPKLLIYAASTLQSGVPSRFSGSGSGTEFTLTIASLQPDDFATYYCQQLNNYPPFTFGPGTKVDIKR
B8: SH25 (Fab, V domains shown)
VH: VQLLEESGGGVVQPGRSLRLACAASGFSFRSYGMHWVRQAPGRGLEWVAFTWFDGSNKYYVDSVKGRFTISRDNSKNTLYLEMNSLRVDDTAVYYCAREAPMLRGISRYYYAMDVWGPGTTVTVSS
VL: AELTQSPSSLSASVGDRVTITCRASQNIRRSLNWYQQKPGKAPKLLIYAASSLQSGVPSRFSGSGSGTDFTLTISSLQPEDFATYYCQQSSNTPWTFGQGTKVEIKR
B9: SH26 (Fab, V domains shown)
VH: EVQLLESGGGVVQPGRSLRLSCVVSGFTFNNYGMHWVRQAPGKGLEWVAVIWFDGSNKYYADSVKGRFTISRDNSKNTLYLQMNSLRAEDTAVYYCARENQIKLWSRYLYYFDYWGQGTLVTVSS
VL: AELTQSPSSLSASVGDRVTITCRASQSISSYLNWYQQKPGKAPKLLIYAASSLQSGVPSRFSGSGSGTDFTLTISSLQPEDFATYYCQQSYSFRRYSFGQGTKLEIKR
B10: SH28 (Fab, V domains shown)
VH: EVQLLESGGGGVQPGRSLRLSCAASGFTFNSYAMYWVRQPPGKGLEWVAAIWYDGSNKEYADFVKGRFTISRDNSKNTLSLQMNSLRDEDTAVYYCAREANLLRGWSRYYYGMDVWGQGTTVTVSS
VL: AELTQSPSSLSASVGDRVTITCRADQNIRRSLNWFQQKPGKAPKLLIYAASSLQSGVPSRFSGSGSGTDFTLTISSLQPEDFATYYCQQSSSTPWTFGRGTKVEIKR
B11: SH30 (Fab, V domains shown)
VH: EVQLLESGGGVVQPGRSLRLSCAVSGFTLTNYGMHWVRQAPGKGLEWVAHVWYDGSKTEYADSVKGRFAVSRDKSKNTLFLQMNSLTAEDTAIYYCARERREKVYILFYSWLDRWGQGTLVTVSS
VL: AELTQSPSSLSASVGDRVTITCRASQSIRRSLNWYQQSPGKTPKLLIYAASSLQSGVPSRFSGSGSGTDFTLTISSLQPEDFATYYCQQSYSTLTFGGGTKVEIKR
B12: SH34 (Fab, V domains shown)
VH: EVQLLESGGGVVQPGRSLRLSCAASGFSFSSYGMHWVRQAPGKGLEWVAVISYDGTNKYFADSVKGRFTISRDNSKKTLYLQMTSLRPEDTAVYFCANLRGEVTRRASVPLDIWGQGTMVTVSS
VL: AELTQSPSSLSASVGDRVTITCRASQSISSYLNWYQQKPGKAPKLLIYAASGLQSGVPSRFSGSGSGTDFTLTISSLQPEDFATYYCQQSYSTPPYTFGQGTKLEIKR
B13: SH37 (Fab, V domains shown)
VH: EVQLLESGGGVVQPGRSLRLSCEASKFTLYNYGMHWVRQAPGKGLEWVAFIWFDGSNKYYEDSVKGRFTVSRDNSKNTLYLQMNSLRAEDTAVYYCARELSKKVALSRYYYYMDVWGQGTTVTVSS
VL: AELQDPVVSVALGQTVKITCQGDSLRKYYASWYQQKPGQAPVLVFYARNSRPSGIPDRFSGSNSGTTASLTIAGARAEDEADYYCHSRDSNGHHRVFGGGTKLTVL
B14: SH46 (Fab, V domains shown)
VH: VQLLEESGGGVVQPGRSLRLSCAASGFTFSSYGMHWVRQAPGRGLEWVALIWYDGGNKEYADSVKGRFSISRDNSKNTLYLQVNSLRADDTAVYYCARDQRAAAGIFYYSRMDVWGQGTTVTVSS
VL: AELTQSPSSLSASVGDRVTITCRASQYISSYLNWYQQKPGKAPNLLIYAASSLQSGVPSRFSGSGSGTDFTLTISSLQPEDFATYYCQQTYSSPSTFGPGTKVDIKR
B15: SH47 (Fab, V domains shown)
VH: EVQLLESGGGVVQPGRSLRLSCAASGFSFSNYAMHWVRQAPGKGLEWVAVTSFDGSIKDYADSVKGRFTISRDNSKNTLYLQMNSLRDEDTAVYYCARERGMIVVVRRRNAFDIWGQGTMVTVSS
VL: AELTQSPSSLSASVGDRVTITCRASQSISNYLNWYQQKPGKAPNLLIYAASSLQSGVPSRFSGSGSGTDFTLTISSLQPEDFATYYCQQSYSYPRTFGQGTKVEIRR
B16: SH48 (Fab, V domains shown)
VH: EVQLLESGGGVVQPGRSLRLSCAASGFSFSSYGMHWVRQAPGKGLEWVAVISYDGTNKYFADSVKGRFTISRDNSKKTLYLQMTSLRPEDTAVYFCANLRGEVTRRASVPLDIWGQGTMVTVSS
VL: AELTQSPSSLSASVGDRVTITCRASQYISSYLNWYQQKPGKAPNLLIYAASSLQSGVPSRFSGSGSGTDFTLTISSLQPEDFATYYCQQTYSSPSTFGPGTKVDIKR

How the values were obtained:
Test in all cases: Fab/phage agglutination (anti-M13)
[1] = biological target: partial Rh(D) antigen, D category VI (human)
[2] = biological target: partial Rh(D) antigen, D category IVa (human)
[3] = biological target: partial Rh(D) antigen, D category V (human)
[4] = biological target: partial Rh(D) antigen, D category III (human)
[5] = biological target: partial Rh(D) antigen, D category IVb (human)
[6] = biological target: partial Rh(D) antigen, D category VII (human)

Binder | binding [1] | binding [2] | binding [3] | binding [4] | binding [5] | binding [6]
B1 | binds | – | – | – | – | –
B2 | no binding | binds | binds | binds | binds | binds
B3 | no binding | binds | binds | binds | binds | binds
B4 | no binding | no binding | no binding | binds | no binding | binds
B5 | no binding | binds | no binding | no binding | binds | no binding
B6 | no binding | binds | binds | no binding | binds | no binding
B7 | no binding | binds | binds | binds | no binding | no binding
B8 | no binding | no binding | binds | binds | no binding | binds
B9 | no binding | binds | no binding | binds | no binding | no binding
B10 | no binding | no binding | binds | binds | no binding | binds
B11 | no binding | binds | binds | binds | binds | binds
B12 | no binding | no binding | no binding | binds | no binding | binds
B13 | no binding | binds | no binding | binds | no binding | binds
B14 | no binding | binds | no binding | no binding | binds | no binding
B15 | no binding | no binding | binds | binds | no binding | binds
B16 | no binding | no binding | no binding | binds | no binding | binds
